Reference: paper PMC3897609, “Heparanase Interacts with Resistin and Augments Its Activity” (PLoS ONE, 2014)
Results are given in words; binding and its absence hold for the method and conditions named. Tags and fused reporters may be left off the sequences shown.

Amino acid sequences for entries named in this document (tags omitted). Residues count along the entry.
UniProt P41159, residues 22-167: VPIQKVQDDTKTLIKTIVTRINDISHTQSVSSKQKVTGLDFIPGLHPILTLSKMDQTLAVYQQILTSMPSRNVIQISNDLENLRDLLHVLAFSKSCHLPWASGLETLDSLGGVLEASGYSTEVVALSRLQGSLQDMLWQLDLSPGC

Target: T1, cMyc-tagged 65-kDa latent heparanase (human, UniProt Q9Y251 36-543)
T1 construct: heparanase, human, 65-kDa latent (unprocessed) form; also called cMyc-latent heparanase; latent cMyc-heparanase; source: medium conditioned by heparanase infected CHO cells, purified (heparin column)
T1 sequence (looked up): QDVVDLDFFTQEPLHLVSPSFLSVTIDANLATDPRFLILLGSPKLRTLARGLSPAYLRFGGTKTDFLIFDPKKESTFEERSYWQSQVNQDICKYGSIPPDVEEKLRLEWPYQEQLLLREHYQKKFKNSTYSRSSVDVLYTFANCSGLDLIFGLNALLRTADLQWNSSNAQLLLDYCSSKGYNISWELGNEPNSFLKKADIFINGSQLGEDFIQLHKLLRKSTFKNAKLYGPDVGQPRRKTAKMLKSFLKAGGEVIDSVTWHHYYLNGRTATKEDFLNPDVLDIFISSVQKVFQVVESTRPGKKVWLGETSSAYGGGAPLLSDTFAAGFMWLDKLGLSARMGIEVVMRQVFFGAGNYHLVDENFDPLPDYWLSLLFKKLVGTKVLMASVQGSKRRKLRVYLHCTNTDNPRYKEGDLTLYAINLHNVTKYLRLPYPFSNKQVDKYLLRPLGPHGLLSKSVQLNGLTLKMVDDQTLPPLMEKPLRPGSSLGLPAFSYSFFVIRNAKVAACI
Assay: ELISA; plates coated with cMyc-heparanase (5 µg/ml), active heparanase (2 µg/ml) or resistin (5-10 µg/ml) in PBS; analyte 2 h at RT; detection with anti resistin, anti heparanase or anti cMyc antibody; also done in the presence of 0.1 mM DTT; both purified

binding: no binding
Substance: Human leptin expressed in E. coli (from UniProt P41159 22-167)
